# Test results as given in the supplement of paper PMC4604168 (melanoma cell lines).
# Some of the results follow. Many values rest on one well or one pass, so single values are uncertain.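 Imaging used 1,536-well plates; nuclei positive for cleaved PARP by antibody were divided by total DNA-stained nuclei to yield the apoptosis fraction. Doses for screening kept most cells viable, and cell lines differ markedly in resting and induced cleaved-PARP levels.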
# Experiments:
# Assay in all cases: cleaved PARP positive nuclei fraction relative to DMSO control; melanoma cells; higher = more apoptosis
# Conditions in all cases: library dose: low library concentration; 72 h
# [1] = test system: 501Mel
# [2] = test system: A101D
# [3] = test system: A2058
# [4] = test system: A375
# [5] = test system: C32
# [6] = test system: CBRC008 (line from a melanoma biopsy)
# [7] = test system: CBRC014 (line from a melanoma biopsy)
# [8] = test system: CBRC016 (line from a melanoma biopsy)
# [9] = test system: CBRC017 (line from a melanoma biopsy)
# [10] = test system: CBRC034 (line from a melanoma biopsy)
# [11] = test system: COLO792
# [12] = test system: COLO800
# [13] = test system: COLO829
# [14] = test system: G361
# [15] = test system: IPC-298
# [16] = test system: IST-MEL1
# [17] = test system: LB2518-MEL
# [18] = test system: LOXIMVI
# [19] = test system: MEL-HO
# [20] = test system: CBRC013 (line from a melanoma biopsy)
Structure (SMILES),cleaved PARP positive nuclei fraction [1] [%],cleaved PARP positive nuclei fraction [2] [%],cleaved PARP positive nuclei fraction [3] [%],cleaved PARP positive nuclei fraction [4] [%],cleaved PARP positive nuclei fraction [5] [%],cleaved PARP positive nuclei fraction [6] [%],cleaved PARP positive nuclei fraction [7] [%],cleaved PARP positive nuclei fraction [8] [%],cleaved PARP positive nuclei fraction [9] [%],cleaved PARP positive nuclei fraction [10] [%],cleaved PARP positive nuclei fraction [11] [%],cleaved PARP positive nuclei fraction [12] [%],cleaved PARP positive nuclei fraction [13] [%],cleaved PARP positive nuclei fraction [14] [%],cleaved PARP positive nuclei fraction [15] [%],cleaved PARP positive nuclei fraction [16] [%],cleaved PARP positive nuclei fraction [17] [%],cleaved PARP positive nuclei fraction [18] [%],cleaved PARP positive nuclei fraction [19] [%],cleaved PARP positive nuclei fraction [20] [%]
"C#Cc1cccc(Nc2ncnc3cc(OCCOC)c(OCCOC)cc23)c1 [erlotinib] + Cc1nc(Nc2ncc(C(=O)Nc3c(C)cccc3Cl)s2)cc(N2CCN(CCO)CC2)n1 [dasatanib] (first compound 0.8 µM, partner dose 0.004 µM)",50.4,57,76.7,126,203,135,107,96.3,107,159,135,117,259,36.4,232,135,57.4,113,97.2,
"Clc1ccc(Nc2nnc(Cc3ccncc3)c3ccccc23)cc1 [vatalanib] + C#Cc1cccc(Nc2ncnc3cc(OCCOC)c(OCCOC)cc23)c1 [erlotinib] (first compound 2 µM, partner dose 0.8 µM)",84.5,94,316,103,72.9,368,118,54.9,175,151,133,63.7,98.7,105,94.3,147,77.8,168,119,
"C=CCNC1=C2C[C@@H](C)C[C@H](OC)[C@H](O)[C@@H](C)/C=C(\C)[C@H](OC(N)=O)[C@@H](OC)/C=C\C=C(/C)C(=O)NC(=CC1=O)C2=O [Tanespimycin] + CC1(C)NC(=O)N(c2ccc([N+](=O)[O-])c(C(F)(F)F)c2)C1=O [nilutamide] (first compound 0.002 µM, partner dose 1 µM)",78.3,77.1,106,84.2,123,222,75.6,141,70.1,,141,39.1,89.2,180,90.4,50.3,91.9,137,70.3,88.5
"Cc1nc(Nc2ncc(C(=O)Nc3c(C)cccc3Cl)s2)cc(N2CCN(CCO)CC2)n1 [dasatanib] + Cn1c(Nc2ccc(C(F)(F)F)cc2)nc2cc(Oc3ccnc(-c4ncc(C(F)(F)F)[nH]4)c3)ccc21 [CHIR265] (first compound 0.004 µM, partner dose 0.08 µM)",131,173,202,406,69.9,104,102,124,116,618,575,35,144,161,156,222,195,115,95.8,
"C[C@]1(c2nc3c(C(N)=O)cccc3[nH]2)CCCN1 [Veliparib] + Cn1nnc2c(C(N)=O)ncn2c1=O [temozolomide] (first compound 1.4 µM, partner dose 2 µM)",81.6,44.6,133,176,74.5,65.3,180,106,81.1,112,147,76.9,97,137,172,202,59.5,86.9,183,
"Cn1c(Nc2ccc(C(F)(F)F)cc2)nc2cc(Oc3ccnc(-c4ncc(C(F)(F)F)[nH]4)c3)ccc21 + Nc1cccc2c1CN(C1CCC(=O)NC1=O)C2=O [lenalidomide] (first compound 0.08 µM, partner dose 1 µM)",225,220,170,250,82.8,99.3,105,149,116,40.6,490,119,220,133,140,65.9,176,93.4,155,
"Cn1nnc2c(C(N)=O)ncn2c1=O [temozolomide] + O=C(O)c1ccc(-c2c[nH]c3ncc(-c4ccccc4)cc23)cc1C1CCCC1 [GSK650394] (first compound 2 µM, partner dose 0.16 µM)",83,87.9,135,91.1,96.1,103,475,115,121,,118,87.9,96.4,102,101,51.4,46.2,42.2,38.4,84
"Cc1nc(Nc2ncc(C(=O)Nc3c(C)cccc3Cl)s2)cc(N2CCN(CCO)CC2)n1 [dasatanib] + Nc1cccc2c1CN(C1CCC(=O)NC1=O)C2=O [lenalidomide] (first compound 0.004 µM, partner dose 1 µM)",84.9,144,477,141,84.8,119,93.3,51.2,112,93.4,146,77.5,124,101,87.3,103,116,168,160,
"CC(=O)c1c(C)c2cnc(Nc3ccc(N4CCNCC4)cn3)nc2n(C2CCCC2)c1=O [palbociclib] + Cc1nc(Nc2ncc(C(=O)Nc3c(C)cccc3Cl)s2)cc(N2CCN(CCO)CC2)n1 [dasatanib] (first compound 0.04 µM, partner dose 0.004 µM)",119,61.9,157,217,183,117,134,32.2,119,80.2,259,18.8,160,236,95.9,71.4,270,1880,67.2,
"COCC[n+]1c2c(n(Cc3cnccn3)c1C)C(=O)c1ccccc1C2=O + Cn1nnc2c(C(N)=O)ncn2c1=O [temozolomide] (first compound 0.0004 µM, partner dose 2 µM)",157,192,115,156,80.9,447,92.2,193,120,58.7,128,149,83,161,56,131,146,123,129,
"CC(=O)c1c(C)c2cnc(Nc3ccc(N4CCNCC4)cn3)nc2n(C2CCCC2)c1=O [palbociclib] + COCC[n+]1c2c(n(Cc3cnccn3)c1C)C(=O)c1ccccc1C2=O [YM155] (first compound 0.04 µM, partner dose 0.0004 µM)",112,129,199,264,26200,669,124,153,124,70.9,258,145,66.6,92.4,109,29.3,136,32.5,110,
"C=CCNC1=C2C[C@@H](C)C[C@H](OC)[C@H](O)[C@@H](C)/C=C(\C)[C@H](OC(N)=O)[C@@H](OC)/C=C\C=C(/C)C(=O)NC(=CC1=O)C2=O [Tanespimycin] + Clc1ccc(Nc2nnc(Cc3ccncc3)c3ccccc23)cc1 [vatalanib] (first compound 0.002 µM, partner dose 2 µM)",88.6,122,142,53.1,170,263,128,322,265,69,126,96.9,63.8,144,230,40.6,121,93.3,133,
"NC(=O)Nc1cc(-c2cccc(F)c2)sc1C(=O)N[C@H]1CCCNC1 + Cc1cc(N2CCOCC2)cc2[nH]c(-c3c(NC[C@@H](O)c4cccc(Cl)c4)cc[nH]c3=O)nc12 [BMS536924] (first compound 0.02 µM, partner dose 0.2 µM)",277,44.7,63.7,1260,208,391,98.1,68.8,107,,125,387,102,120,99,137,329,158,142,189
"CC(=O)c1c(C)c2cnc(Nc3ccc(N4CCNCC4)cn3)nc2n(C2CCCC2)c1=O [palbociclib] + CC(C)(C)c1cnc(CSc2cnc(NC(=O)C3CCNCC3)s2)o1 [SNS-032] (first compound 0.04 µM, partner dose 0.01 µM)",126,311,110,180,232,77.1,103,82.8,95.4,,161,25.1,179,53.3,89.9,111,131,69.4,37.7,105
"CC(=O)c1c(C)c2cnc(Nc3ccc(N4CCNCC4)cn3)nc2n(C2CCCC2)c1=O [palbociclib] + COc1ccc(Cl)c(Nc2nc3ccccc3nc2NS(=O)(=O)c2cccc(NC(=O)C(C)(C)N)c2)c1 [XL147] (first compound 0.04 µM, partner dose 0.8 µM)",240,58.6,99.4,116,97.3,295,127,153,140,181,67.1,84.9,175,132,97.3,326,123,218,148,
"O=C(CCCCCCC(=O)Nc1ccccc1)NO [vorinostat] + NCC(=O)Nc1ccc(-n2nc(C(F)(F)F)cc2-c2ccc3c(ccc4ccccc43)c2)cc1 [OSU03012] (first compound 0.08 µM, partner dose 1 µM)",494,81.9,109,3380,184,42.2,77.4,115,74.5,,187,93.8,155,55,108,63.9,39.2,137,70.9,96.1
"C#Cc1cccc(Nc2ncnc3cc(OCCOC)c(OCCOC)cc23)c1 [erlotinib] + Nc1cccc2c1CN(C1CCC(=O)NC1=O)C2=O [lenalidomide] (first compound 0.8 µM, partner dose 1 µM)",89.3,140,106,221,65.9,292,114,93.9,141,68.8,89.4,132,90.2,125,94.5,327,102,100,59.7,

# Taken from the results shown for reference:
Structure (SMILES),cleaved PARP positive nuclei fraction [1] [%],cleaved PARP positive nuclei fraction [2] [%],cleaved PARP positive nuclei fraction [3] [%],cleaved PARP positive nuclei fraction [4] [%],cleaved PARP positive nuclei fraction [5] [%],cleaved PARP positive nuclei fraction [6] [%],cleaved PARP positive nuclei fraction [7] [%],cleaved PARP positive nuclei fraction [8] [%],cleaved PARP positive nuclei fraction [9] [%],cleaved PARP positive nuclei fraction [10] [%],cleaved PARP positive nuclei fraction [11] [%],cleaved PARP positive nuclei fraction [12] [%],cleaved PARP positive nuclei fraction [13] [%],cleaved PARP positive nuclei fraction [14] [%],cleaved PARP positive nuclei fraction [15] [%],cleaved PARP positive nuclei fraction [16] [%],cleaved PARP positive nuclei fraction [17] [%],cleaved PARP positive nuclei fraction [18] [%],cleaved PARP positive nuclei fraction [19] [%],cleaved PARP positive nuclei fraction [20] [%]
"Cc1nc(Nc2ncc(C(=O)Nc3c(C)cccc3Cl)s2)cc(N2CCN(CCO)CC2)n1 [dasatanib] + Nc1cccc2c1CN(C1CCC(=O)NC1=O)C2=O [lenalidomide] (first compound 0.004 µM, partner dose 1 µM)",84.9,144,477,141,84.8,119,93.3,51.2,112,93.4,146,77.5,124,101,87.3,103,116,168,160,
"CC(=O)c1c(C)c2cnc(Nc3ccc(N4CCNCC4)cn3)nc2n(C2CCCC2)c1=O [palbociclib] + Cc1nc(Nc2ncc(C(=O)Nc3c(C)cccc3Cl)s2)cc(N2CCN(CCO)CC2)n1 [dasatanib] (first compound 0.04 µM, partner dose 0.004 µM)",119,61.9,157,217,183,117,134,32.2,119,80.2,259,18.8,160,236,95.9,71.4,270,1880,67.2,
